Measured values from paper PMC7847993.

Target: T1, Arabidopsis PIP2;7 (Arabidopsis thaliana) (UniProt P93004)
T1 sequence: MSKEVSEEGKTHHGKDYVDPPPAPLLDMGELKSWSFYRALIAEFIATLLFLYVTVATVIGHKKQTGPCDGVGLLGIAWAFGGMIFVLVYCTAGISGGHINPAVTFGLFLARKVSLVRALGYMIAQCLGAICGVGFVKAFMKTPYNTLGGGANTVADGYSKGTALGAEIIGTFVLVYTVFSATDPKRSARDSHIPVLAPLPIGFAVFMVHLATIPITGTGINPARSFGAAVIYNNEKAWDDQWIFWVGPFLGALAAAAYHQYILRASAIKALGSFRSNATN
Assay: split reporter; ratiometric BiFC (pBiFCt-2in1-NN vector, p35S): nEYFP-SNARE and cEYFP-PIP co-expressed in N. benthamiana leaf cells, imaged 3 days after agro-infiltration; YFP/RFP ratio at the plasma membrane compared with SYP121/PIP2;7 (positive) and SNAP33/PIP2;7 (negative)

| Substance | binding |
| --- | --- |
| SYP121ΔN (Arabidopsis thaliana) (domain or fragment) | binds |
| ZmSYP121 (maize (Zea mays)) | binds |

Results are given in words; binding and its absence hold for the method and conditions named. Binding seen in cells or lysates may run through a third protein. Binding calls can cover weak binding; strength is not graded here.
